Reference: the supplement of paper PMC8728848
The other results are listed elsewhere or left out.

Experiments:
Test in all cases: glycan array binding signal (z-score within array); higher = stronger binding
Details in all cases: glycan notation: IUPAC condensed, linker removed
[1] = molecular target: Fuc(a1-2)[Gal(a1-3)]Gal(b1-4)GlcNAc(b1-2)Man(a1-3)[Fuc(a1-2)[Gal(a1-3)]Gal(b1-4)GlcNAc(b1-2)Man(a1-6)]Man(b1-4)GlcNAc(b1-4)[Fuc(a1-6)]GlcNAc
Procedure, shortened: (§1)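 The binding signal is a Z-score computed within each array. Data were drawn from 3228 arrays in the Consortium for Functional Glycomics database, restricted to those with a known protein sequence. Scores were averaged over arrays of the same protein sequence at different concentrations or buffers, and over linkers, and negative values can be taken as non-binding.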

[2] = molecular target: Fuc(a1-2)[Gal(a1-3)]Gal(b1-4)GlcNAc(b1-3)GalNAc
Procedure, shortened: as §1

[3] = molecular target: Fuc(a1-2)[Gal(a1-3)]Gal(b1-4)GlcNAc(b1-3)[Fuc(a1-2)[Gal(a1-3)]Gal(b1-4)GlcNAc(b1-6)]GalNAc
Procedure, shortened: as §1

[4] = molecular target: Fuc(a1-2)[Gal(a1-3)]Gal(b1-4)GlcNAc(b1-6)GalNAc
Procedure, shortened: as §1

[5] = molecular target: Fuc(a1-2)[Gal(a1-3)]Gal(b1-4)[Fuc(a1-3)]Glc
Procedure, shortened: as §1

[6] = molecular target: Fuc(a1-2)[Gal(a1-3)]Gal(b1-4)[Fuc(a1-3)]GlcNAc
Procedure, shortened: as §1

[7] = molecular target: Fuc(a1-2)[Gal(a1-3)]Gal(b1-4)[Fuc(a1-3)]GlcNAc(b1-3)GalNAc
Procedure, shortened: as §1

[8] = molecular target: Fuc(a1-2)[Gal(a1-4)]Gal(b1-4)GlcNAc
Procedure, shortened: as §1

[9] = molecular target: Fuc(a1-2)[GalNAc(a1-3)]Gal
Procedure, shortened: as §1

[10] = molecular target: Fuc(a1-2)[GalNAc(a1-3)]Gal(b1-3)GalNAc(a1-3)[Fuc(a1-2)]Gal(b1-4)GlcNAc
Procedure, shortened: as §1

[11] = molecular target: Fuc(a1-2)[GalNAc(a1-3)]Gal(b1-3)GalNAc(b1-3)Gal(a1-4)Gal(b1-4)Glc
Procedure, shortened: as §1

[12] = molecular target: Fuc(a1-2)[GalNAc(a1-3)]Gal(b1-3)GlcNAc
Procedure, shortened: as §1

[13] = molecular target: Fuc(a1-2)[GalNAc(a1-3)]Gal(b1-3)GlcNAc(b1-2)Man(a1-3)[Fuc(a1-2)[GalNAc(a1-3)]Gal(b1-3)GlcNAc(b1-2)Man(a1-6)]Man(b1-4)GlcNAc(b1-4)GlcNAc
Procedure, shortened: as §1

[14] = molecular target: Fuc(a1-2)[GalNAc(a1-3)]Gal(b1-3)GlcNAc(b1-2)Man(a1-3)[Fuc(a1-2)[GalNAc(a1-3)]Gal(b1-3)GlcNAc(b1-2)Man(a1-6)]Man(b1-4)GlcNAc(b1-4)[Fuc(a1-6)]GlcNAc
Procedure, shortened: as §1

[15] = molecular target: Fuc(a1-2)[GalNAc(a1-3)]Gal(b1-3)GlcNAc(b1-3)GalNAc
Procedure, shortened: as §1

[16] = molecular target: Fuc(a1-2)[GalNAc(a1-3)]Gal(b1-3)GlcNAc(b1-6)GalNAc
Procedure, shortened: as §1

[17] = molecular target: Fuc(a1-2)[GalNAc(a1-3)]Gal(b1-4)Glc
Procedure, shortened: as §1

[18] = molecular target: Fuc(a1-2)[GalNAc(a1-3)]Gal(b1-4)GlcNAc
Procedure, shortened: as §1

[19] = molecular target: Fuc(a1-2)[GalNAc(a1-3)]Gal(b1-4)GlcNAc(b1-2)Man
Procedure, shortened: as §1

[20] = molecular target: Fuc(a1-2)[GalNAc(a1-3)]Gal(b1-4)GlcNAc(b1-2)Man(a1-3)[Fuc(a1-2)[GalNAc(a1-3)]Gal(b1-4)GlcNAc(b1-2)Man(a1-6)]Man(b1-4)GlcNAc(b1-4)GlcNAc
Procedure, shortened: as §1

[21] = molecular target: Fuc(a1-2)[GalNAc(a1-3)]Gal(b1-4)GlcNAc(b1-2)Man(a1-3)[Fuc(a1-2)[GalNAc(a1-3)]Gal(b1-4)GlcNAc(b1-2)Man(a1-6)]Man(b1-4)GlcNAc(b1-4)[Fuc(a1-6)]GlcNAc
Procedure, shortened: as §1

[22] = molecular target: Fuc(a1-2)[GalNAc(a1-3)]Gal(b1-4)GlcNAc(b1-3)Gal(b1-4)GlcNAc
Procedure, shortened: as §1

[23] = molecular target: Fuc(a1-2)[GalNAc(a1-3)]Gal(b1-4)GlcNAc(b1-3)Gal(b1-4)GlcNAc(b1-3)Gal(b1-4)GlcNAc
Procedure, shortened: as §1

[24] = molecular target: Fuc(a1-2)[GalNAc(a1-3)]Gal(b1-4)GlcNAc(b1-3)GalNAc
Procedure, shortened: as §1

[25] = molecular target: Fuc(a1-2)[GalNAc(a1-3)]Gal(b1-4)GlcNAc(b1-3)[Fuc(a1-2)[GalNAc(a1-3)]Gal(b1-4)GlcNAc(b1-6)]GalNAc
Procedure, shortened: as §1

[26] = molecular target: Fuc(a1-2)[GalNAc(a1-3)]Gal(b1-4)GlcNAc(b1-6)GalNAc
Procedure, shortened: as §1

[27] = molecular target: Fuc(a1-2)[GalNAc(a1-3)]Gal(b1-4)[Fuc(a1-3)]GlcNAc
Procedure, shortened: as §1

[28] = molecular target: Fuc(a1-2)[GalNAc(a1-3)]Gal(b1-4)[Fuc(a1-3)]GlcNAc(b1-3)GalNAc
Procedure, shortened: as §1

[29] = molecular target: Fuc(a1-2)[GalNAc(a1-4)]Gal(b1-4)GlcNAc
Procedure, shortened: as §1

[30] = molecular target: Fuc(a1-2)[GalNAc(b1-3)]Gal
Procedure, shortened: as §1

Fuc(a1-3)GlcNAc = molecular target: Fuc(a1-3)GlcNAc
Procedure, shortened: as §1

[31] = molecular target: Fuc(a1-3)[Gal(b1-4)]Glc6S
Procedure, shortened: as §1

[32] = molecular target: Fuc(a1-3)[Gal(b1-4)]GlcNAc
Procedure, shortened: as §1

[33] = molecular target: Fuc(a1-3)[Gal(b1-4)]GlcNAc(b1-2)Man
Procedure, shortened: as §1

[34] = molecular target: Fuc(a1-3)[Gal(b1-4)]GlcNAc(b1-2)Man(a1-3)[Fuc(a1-3)[Gal(b1-4)]GlcNAc(b1-2)Man(a1-6)]Man(b1-4)GlcNAc(b1-4)GlcNAc
Procedure, shortened: as §1

[35] = molecular target: Fuc(a1-3)[Gal(b1-4)]GlcNAc(b1-2)Man(a1-3)[Fuc(a1-3)[Gal(b1-4)]GlcNAc(b1-2)Man(a1-6)]Man(b1-4)GlcNAc(b1-4)[Fuc(a1-6)]GlcNAc
Procedure, shortened: as §1

[36] = molecular target: Fuc(a1-3)[Gal(b1-4)]GlcNAc(b1-3)Gal(b1-3)[Fuc(a1-4)]GlcNAc
Procedure, shortened: as §1

[37] = molecular target: Fuc(a1-3)[Gal(b1-4)]GlcNAc(b1-3)Gal(b1-4)[Fuc(a1-3)]GlcNAc
Procedure, shortened: as §1

[38] = molecular target: Fuc(a1-3)[Gal(b1-4)]GlcNAc(b1-3)Gal(b1-4)[Fuc(a1-3)]GlcNAc(b1-3)Gal(b1-4)[Fuc(a1-3)]GlcNAc
Procedure, shortened: as §1

[39] = molecular target: Fuc(a1-3)[Gal(b1-4)]GlcNAc(b1-3)GalNAc
Procedure, shortened: as §1

[40] = molecular target: Fuc(a1-3)[Gal(b1-4)]GlcNAc(b1-6)GalNAc
Procedure, shortened: as §1

[41] = molecular target: Fuc(a1-3)[Gal(b1-4)]GlcNAc(b1-6)[Gal(b1-3)GlcNAc(b1-3)]Gal(b1-4)Glc
Procedure, shortened: as §1

[42] = molecular target: Fuc(a1-3)[Gal(b1-4)]GlcNAc6S
Procedure, shortened: as §1

[43] = molecular target: Fuc(a1-3)[Gal3S(b1-4)]Glc
Procedure, shortened: as §1

[44] = molecular target: Fuc(a1-3)[Gal3S(b1-4)]GlcNAc
Procedure, shortened: as §1

B1: PX14343G-pdi-535-24-535 (Parabacteroides distasonis) (protein)
chain: LDTVPKDQLAPSTTWQTEADAKGFIVGCYKDLLDGNTLLYLDCGSDIGYNNFPWEGFRPWGDGSLSSSNPGQILYDYKSIRKANTFLENVDKVTFSSDAVKANYVAQAKAIRAYKYFLMNWWYGGVPIISSYSSADEAKVERNTEQEVRDYIAKDLDEALAGIAEAPEARGYIAKGAVLAIKMREALYYGDWQKAKDAAKAIIDLKQYELDPDYTNLFKVSGVDSKEIILADQNIETLDGLGTIGQMYNNVDQGWSSIVPTQNLVDMYEMSDGLTKEESKTYDAKHPFANRDPRMAMTILYPGRDWRGDVLNTLDEKLQDGTVNKNFPTYTDNASKSALTWAKYLDPMDQYGDVWSSGACPIVFRYAEVLLTYAEAANELSGPSDEIYGYLNQIRQRVGMGEVDKAKYGTKDKLRELIRRERTVELAGEGLRRADIVRWQEDGKMLAEKVMNGDLLRVTGTINYGESEPTKRAEITGTAVIETRQFSSRNRYLPIPQTSMDKNPNLKQNPGY
Q: Which “glycan array binding signal (z-score)” value [1] does the source give for B1 here?
A: The value was -0.826.

Q: And the “glycan array binding signal (z-score)” value [2]?
A: Its value is -0.357.

Q: And the “glycan array binding signal (z-score)” value [3]?
A: The value was -0.8.

Q: What about the “glycan array binding signal (z-score)” value [4] of the same binder?
A: Its value is -0.274.

Q: What about the “glycan array binding signal (z-score)” value [5] of the same binder?
A: The value was 1.

Q: And the “glycan array binding signal (z-score)” value [6]?
A: The value was -0.566.

Q: What about the “glycan array binding signal (z-score)” value [7] of the same binder?
A: The value was 0.124.

Q: And the “glycan array binding signal (z-score)” value [8]?
A: The value was -0.248.

Q: And the “glycan array binding signal (z-score)” value [9]?
A: The value was -0.184.

Q: What about the “glycan array binding signal (z-score)” value [10] of the same binder?
A: Its value is -0.789.

Q: And the “glycan array binding signal (z-score)” value [11]?
A: The value was -1.02.

Q: And the “glycan array binding signal (z-score)” value [12]?
A: Its value is 0.125.

Q: What about the “glycan array binding signal (z-score)” value [13] of the same binder?
A: The value was 0.307.

Q: What about the “glycan array binding signal (z-score)” value [14] of the same binder?
A: Its value is -1.2.

Q: And the “glycan array binding signal (z-score)” value [15]?
A: Its value is -0.017.

Q: What about the “glycan array binding signal (z-score)” value [16] of the same binder?
A: Its value is -0.366.

Q: What about the “glycan array binding signal (z-score)” value [17] of the same binder?
A: Its value is -0.666.

Q: And the “glycan array binding signal (z-score)” value [18]?
A: The value was -0.63.

Q: What about the “glycan array binding signal (z-score)” value [19] of the same binder?
A: Its value is -0.554.

Q: What about the “glycan array binding signal (z-score)” value [20] of the same binder?
A: The value was 0.403.

Q: And the “glycan array binding signal (z-score)” value [21]?
A: Its value is -0.351.

Q: What about the “glycan array binding signal (z-score)” value [22] of the same binder?
A: The value was -0.639.

Q: And the “glycan array binding signal (z-score)” value [23]?
A: The value was 0.671.

Q: And the “glycan array binding signal (z-score)” value [24]?
A: The value was 0.305.

Q: What about the “glycan array binding signal (z-score)” value [25] of the same binder?
A: The value was -0.346.

Q: And the “glycan array binding signal (z-score)” value [26]?
A: Its value is -0.41.

Q: And the “glycan array binding signal (z-score)” value [27]?
A: Its value is -0.896.

Q: And the “glycan array binding signal (z-score)” value [28]?
A: The value was 1.07.

Q: What about the “glycan array binding signal (z-score)” value [29] of the same binder?
A: The value was -0.362.

Q: And the “glycan array binding signal (z-score)” value [30]?
A: The value was -0.494.

Q: What about the “glycan array binding signal (z-score)” value (Fuc(a1-3)GlcNAc) of the same binder?
A: The value was -0.083.

Q: What about the “glycan array binding signal (z-score)” value [31] of the same binder?
A: The value was 1.53.

Q: And the “glycan array binding signal (z-score)” value [32]?
A: The value was -0.225.

Q: What about the “glycan array binding signal (z-score)” value [33] of the same binder?
A: The value was -0.044.

Q: And the “glycan array binding signal (z-score)” value [34]?
A: The value was 0.575.

Q: What about the “glycan array binding signal (z-score)” value [35] of the same binder?
A: The value was 0.354.

Q: What about the “glycan array binding signal (z-score)” value [36] of the same binder?
A: Its value is -0.007.

Q: What about the “glycan array binding signal (z-score)” value [37] of the same binder?
A: The value was 0.082.

Q: And the “glycan array binding signal (z-score)” value [38]?
A: Its value is -0.057.

Q: And the “glycan array binding signal (z-score)” value [39]?
A: The value was -0.56.

Q: What about the “glycan array binding signal (z-score)” value [40] of the same binder?
A: The value was -0.26.

Q: And the “glycan array binding signal (z-score)” value [41]?
A: Its value is -0.628.

Q: And the “glycan array binding signal (z-score)” value [42]?
A: The value was 1.22.

Q: What about the “glycan array binding signal (z-score)” value [43] of the same binder?
A: The value was -0.435.

Q: And the “glycan array binding signal (z-score)” value [44]?
A: Its value is -0.249.
